Earlier results, collected in patent US6849616B1, “Methods to potentiate intravenous estramustine phosphate” (Pharmacia Italia S.p.A., priority 1998, dated 2005).
Read-outs that look alike come from different tables or passages of the source. At least one structure is not confirmed: it was looked up by name or label, or the drawing left a doubt.

Details: cited from earlier work

Structure (SMILES): C[C@]12CC[C@@H]3c4ccc(OC(=O)N(CCCl)CCCl)cc4CC[C@H]3[C@@H]1CCC2=O [estromustine]
- ratio plasma/tumor (prostate cancer patients treated with estramustine phosphate intravenously (Walz 1988)): 1:11
- ratio plasma/tumor (prostate cancer patients treated with estramustine phosphate oral (Norlen 1988)): 1:6
